Test results reported in paper PMC9929037.
No constants are given. Whether binding was seen depends on the method and setting. Binding seen in cells or lysates may run through a third protein. Binding can be weak; no strength is given.

Sequences of proteins named here, by UniProt entry; tags and fusion partners are left off. A change or cut given only in a name is not applied to a line headed by its entry.
UniProt A0A3B5ZSS4: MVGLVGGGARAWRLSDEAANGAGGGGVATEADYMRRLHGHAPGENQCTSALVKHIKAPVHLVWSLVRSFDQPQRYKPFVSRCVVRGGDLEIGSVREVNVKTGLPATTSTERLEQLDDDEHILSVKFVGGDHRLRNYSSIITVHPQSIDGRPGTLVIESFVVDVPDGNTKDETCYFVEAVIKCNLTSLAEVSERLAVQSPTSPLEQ

Columns and labels:
[1] = target: cLUC-TaPP2C-7A (Triticum aestivum (bread wheat)); test: split reporter; LCI of cLUC-TaPP2C-7A with nLUC-TaPYL-1D in N. benthamiana leaves with a third protein co-expressed (TN1-GFP, tn1-GFP or GFP empty vector); relative luminescence, GFP EV combination set to 1
[2] = target: cLUC-TaPP2C-7A (Triticum aestivum (bread wheat)); test: split reporter; firefly luciferase complementation imaging (LCI); cLUC and nLUC fusions co-expressed in N. benthamiana leaves by Agrobacterium GV3101 infiltration; luminescence imaged after 36-48 h

For “nLUC-TaPYL-1D (from UniProt A0A3B5ZSS4) (receptor)”, the binding [1] was “binds” and the binding [2] was “binds”.
